Some of the results follow.
Compound: Cc1cc(ccc1-c1ccccc1)C(=O)N1CCCN(CC1)C(=O)CCl [compound 10]
Experiment: probe-labelled cysteine peptide fold change vs DMSO (competition) (log2 fold change); higher = less target engagement (more negative = stronger competition)
Conditions: 50 µM; THP-1; incubation time: 4 h
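Also: competitive profiling in live THP-1 cells: cysteine peptides tagged with an iodoacetamide desthiobiotin (IA-DTB) probe, intensity after compound treatment relative to DMSO-treated cells.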

Target	probe-labelled cysteine peptide fold change
NCAPH_Q15003_309_APLQQCAEDR (UniProt Q15003)	0.0258
MYO9B_Q13459_152_QQADFDDLCNLPELTEGNLLK (UniProt Q13459)	0.199
NADK_O95544_69_SLHGPCPVTTFGPK (UniProt O95544)	-0.362
NCBP1_Q09161_332_TCAAQLVSYPGK (UniProt Q09161)	-0.141
NCALD_P61601_38_DCPSGHLSMEEFK (UniProt P61601)	0.404
MZF1_P28698_323_SEQDPTDEDPCR (UniProt P28698)	0.0171
NANP_Q8TBE9_49_YHYKEEAEIICDK (UniProt Q8TBE9)	-0.162
NAP1L4_Q99733_77_CAHIEAK (UniProt Q99733)	0.0178
NAPA_P54920_212+215_AALCHFCIDMLNAK (UniProt P54920)	-0.17
NARS_O43776_342_HLAEYTHVEAECPFLTFDDLLNR (UniProt O43776)	0.656
NAP1L1_P55209_88_CAQIEAK (UniProt P55209)	-0.0287
NBEAL2_Q6ZNJ1_1491_GQVFSVLTQLGASATLVRPPDCIKR (UniProt Q6ZNJ1)	-0.189
MYO6_Q9UM54_587_HFAGAVCYETTQFVEK (UniProt Q9UM54)	0.225
NAA15_Q9BXJ9_529_HFIEITDDQFDFHTYCMR (UniProt Q9BXJ9)	0.191
NCAM2_O15394_232_GEEMTFSCR (UniProt O15394)	-0.0222
NAA35_Q5VZE5_420_DCIDSFVTHCVRPFCSLIQIHGHNR (UniProt Q5VZE5)	-0.265
NAPRT_Q6XQN6_254_AQVWLEQVCAHLGLGVQEPHPGER (UniProt Q6XQN6)	0.0802
NCBP1_Q09161_332_KTCAAQLVSYPGK (UniProt Q09161)	-0.681
NCAPD3_P42695_361_ILLQHICAK (UniProt P42695)	0.389

An excerpt of these results, with bars between the fields:
Target | probe-labelled cysteine peptide fold change
NANP_Q8TBE9_49_YHYKEEAEIICDK (UniProt Q8TBE9) | -0.162
NAP1L4_Q99733_77_CAHIEAK (UniProt Q99733) | 0.0178

Carrying on:

Target	probe-labelled cysteine peptide fold change
NAA25_Q14CX7_381_VFVDLLPATQCTK (UniProt Q14CX7)	-0.0518
NAA15_Q9BXJ9_214_EALEHLCTYEK (UniProt Q9BXJ9)	0.056
NCBP1_Q09161_261_HILRPYLAFDSILCEALQHNLPPFTPPPHTEDSVYPMPR (UniProt Q09161)	0.119
NCF2_P19878_514_VFVEDCATTDLESTR (UniProt P19878)	0.0215
NCK1_P16333_340_ETVYCIGQR (UniProt P16333)	-0.0537
NAA40_Q86UY6_59_NGLNVSIECK (UniProt Q86UY6)	0.0422
NAA16_Q6N069_529_HFFEITDDQFDFHTYCMR (UniProt Q6N069)	0.323
MYO6_Q9UM54_1110_DTINTSCDIELLAACR (UniProt Q9UM54)	0.0634
NACC2_Q96BF6_441_ESEMNVIAADMCTNAR (UniProt Q96BF6)	-0.264
NCAPG_Q9BPX3_177_DDECPVVNAYATLIENDSNPEVR (UniProt Q9BPX3)	-0.294
NCAPG_Q9BPX3_509_EALENCITLQDFNR (UniProt Q9BPX3)	0.18
NADSYN1_Q6IA69_338_YHSPEEEISLGPACWLWDFLRR (UniProt Q6IA69)	0.263
MYO6_Q9UM54_252_LCAGASEDIR (UniProt Q9UM54)	0.194
NBN_O60934_31_NCAILIENDQSISR (UniProt O60934)	0.051
NANP_Q8TBE9_49_EEAEIICDK (UniProt Q8TBE9)	0.356
NBEAL2_Q6ZNJ1_245_GPAPDPCLVPLALEALVGAVHVLHASR (UniProt Q6ZNJ1)	-0.616
MYOF_Q9NZM1_1131_HSATTVFGANTPIVSCNFDR (UniProt Q9NZM1)	0.00786
MYO18A_Q92614_811_GASFEELCHNYTQDR (UniProt Q92614)	-0.0101
MYOF_Q9NZM1_1574_GLELQPQDNNGLCDPYIK (UniProt Q9NZM1)	0.245

Reference: the supplement of paper PMC12067093, “Discovery and optimisation of a covalent ligand for TRIM25 and its application to targeted protein ubiquitination” (Chemical Science, 2025)
